Reference: PubChem BioAssay AID1259308 (NCATS, 2017)
The whole screen tested about 59,000 reagents; this is an unselected part. In the full data, about 1,510 (2.6%) got an active call. 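Calls use total luciferase alone and ignore viability, so some active siRNAs may act by altering cell number.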 The numbers tell different reagents against one gene apart. Further read-outs or replicates are left out here.

Assay: 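Candidate targets for better recombinant protein yield in mammalian cells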 (primary screen)
Cell system: human HEK293 embryonic kidney cells stably expressing firefly luciferase (HEK-CMV-Luc2-Hygro)
Reagents: single siRNA against human genes, 0.8 pmol siRNA per well
Time to read-out: 72 h
Read-out: 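Luciferase light (ONE-Glo) measured on one replicate plate set and viability (CellTiter-Glo) on the other, scaled to a negative control siRNA, with robust z-scores and luciferase per cell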
Scale: total luciferase, z-score and total luciferase, % of control: higher = more reporter protein produced
Active means: 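Active when the median/MAD z-score for overall luciferase is greater than 3; a gene was taken forward for validation with new siRNAs if at least two of its three siRNAs passed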
Meaning of the calls: active = raised luciferase; inactive = no rise

INSL6 (insulin like 6) #1
- total luciferase, z-score: -0.0352
- total luciferase, % of control: 81.2
- outcome: inactive

INSL6 (insulin like 6) #2
- total luciferase, z-score: 0.307
- total luciferase, % of control: 88
- outcome: inactive

INSL6 (insulin like 6) #3
- total luciferase, z-score: -0.48
- total luciferase, % of control: 72.3
- outcome: inactive

STARD4 (StAR related lipid transfer domain containing 4) #1
- total luciferase, z-score: -1.43
- total luciferase, % of control: 53.4
- outcome: inactive

STARD4 (StAR related lipid transfer domain containing 4) #2
- total luciferase, z-score: -1.17
- total luciferase, % of control: 58.5
- outcome: inactive

STARD4 (StAR related lipid transfer domain containing 4) #3
- total luciferase, z-score: -0.29
- total luciferase, % of control: 76.1
- outcome: inactive

CRYGS (crystallin gamma S) #1
- total luciferase, z-score: 0.336
- total luciferase, % of control: 88.6
- outcome: inactive

CRYGS (crystallin gamma S) #2
- total luciferase, z-score: 0.671
- total luciferase, % of control: 95.2
- outcome: inactive

CRYGS (crystallin gamma S) #3
- total luciferase, z-score: -1.3
- total luciferase, % of control: 56.1
- outcome: inactive

AJUBA (ajuba LIM protein) #1
- total luciferase, z-score: -0.206
- total luciferase, % of control: 77.8
- outcome: inactive

AJUBA (ajuba LIM protein) #2
- total luciferase, z-score: 0.759
- total luciferase, % of control: 97
- outcome: inactive

AJUBA (ajuba LIM protein) #3
- total luciferase, z-score: 0.853
- total luciferase, % of control: 98.8
- outcome: inactive

LINC00303 (long independently transcribed non-coding RNA 303) #1
- total luciferase, z-score: 1.77
- total luciferase, % of control: 117
- outcome: inactive

LINC00303 (long independently transcribed non-coding RNA 303) #2
- total luciferase, z-score: -0.186
- total luciferase, % of control: 78.2
- outcome: inactive

LINC00303 (long independently transcribed non-coding RNA 303) #3
- total luciferase, z-score: 0.266
- total luciferase, % of control: 87.2
- outcome: inactive

MOK (MOK protein kinase) #1
- total luciferase, z-score: 0.611
- total luciferase, % of control: 94
- outcome: inactive

MOK (MOK protein kinase) #2
- total luciferase, z-score: -1.52
- total luciferase, % of control: 51.7
- outcome: inactive

MOK (MOK protein kinase) #3
- total luciferase, z-score: -0.329
- total luciferase, % of control: 75.4
- outcome: inactive

MPPED1 (metallophosphoesterase domain containing 1) #1
- total luciferase, z-score: -0.0379
- total luciferase, % of control: 81.1
- outcome: inactive

MPPED1 (metallophosphoesterase domain containing 1) #2
- total luciferase, z-score: -0.677
- total luciferase, % of control: 68.4
- outcome: inactive

MPPED1 (metallophosphoesterase domain containing 1) #3
- total luciferase, z-score: 1.23
- total luciferase, % of control: 106
- outcome: inactive

MPPED1 (metallophosphoesterase domain containing 1) #4
- total luciferase, z-score: -0.674
- total luciferase, % of control: 68.5
- outcome: inactive

MPPED1 (metallophosphoesterase domain containing 1) #5
- total luciferase, z-score: 1.15
- total luciferase, % of control: 105
- outcome: inactive

MPPED1 (metallophosphoesterase domain containing 1) #6
- total luciferase, z-score: 0.554
- total luciferase, % of control: 92.9
- outcome: inactive

LOC727751 (golgin A2 pseudogene) #1
- total luciferase, z-score: -0.782
- total luciferase, % of control: 66.3
- outcome: inactive

LOC727751 (golgin A2 pseudogene) #2
- total luciferase, z-score: 0.362
- total luciferase, % of control: 89.1
- outcome: inactive

LOC727751 (golgin A2 pseudogene) #3
- total luciferase, z-score: -0.431
- total luciferase, % of control: 73.3
- outcome: inactive

METTL16 (methyltransferase 16, RNA N6-adenosine) #1
- total luciferase, z-score: 1.24
- total luciferase, % of control: 107
- outcome: inactive

METTL16 (methyltransferase 16, RNA N6-adenosine) #2
- total luciferase, z-score: -0.234
- total luciferase, % of control: 77.2
- outcome: inactive

METTL16 (methyltransferase 16, RNA N6-adenosine) #3
- total luciferase, z-score: 1.22
- total luciferase, % of control: 106
- outcome: inactive

PCDHB8 (protocadherin beta 8) #1
- total luciferase, z-score: 0.998
- total luciferase, % of control: 102
- outcome: inactive

PCDHB8 (protocadherin beta 8) #2
- total luciferase, z-score: -0.488
- total luciferase, % of control: 72.2
- outcome: inactive

PCDHB8 (protocadherin beta 8) #3
- total luciferase, z-score: 0.0979
- total luciferase, % of control: 83.8
- outcome: inactive
